No constants are given. Whether binding was seen depends on the method and setting. Binding seen in cells or lysates may run through a third protein. Sequences can lack the tags named with a protein.
Biological target: T1, nYFP-ABF3 (Arabidopsis thaliana) (UniProt Q9M7Q3)
T1 sequence: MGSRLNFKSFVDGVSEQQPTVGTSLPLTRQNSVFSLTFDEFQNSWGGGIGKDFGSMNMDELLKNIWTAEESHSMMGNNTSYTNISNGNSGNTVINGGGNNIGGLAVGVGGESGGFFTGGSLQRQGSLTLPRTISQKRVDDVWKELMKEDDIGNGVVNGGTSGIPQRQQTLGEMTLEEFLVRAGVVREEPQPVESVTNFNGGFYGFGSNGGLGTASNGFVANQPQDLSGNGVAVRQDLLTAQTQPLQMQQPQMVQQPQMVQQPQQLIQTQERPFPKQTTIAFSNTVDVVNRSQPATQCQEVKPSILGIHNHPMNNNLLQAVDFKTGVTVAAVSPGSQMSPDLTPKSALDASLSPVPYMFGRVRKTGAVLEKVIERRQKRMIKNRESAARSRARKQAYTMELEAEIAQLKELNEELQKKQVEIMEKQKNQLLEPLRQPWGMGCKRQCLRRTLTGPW
Experiment: split reporter; BiFC with nYFP (pXY106) and cYFP (pXY104) fusions co-transformed into Nicotiana benthamiana leaf epidermal cells; confocal microscopy after 48 hours

With “cYFP only (YFP C-terminal fragment) (domain or fragment)” as the substance, how does the binding read?
Its binding is “no binding”.

— PMC6136374
